Measurements reported in paper PMC12552980.
Results are given in words; binding and its absence hold for the method and conditions named. In cells and extracts the contact can be indirect. Some results given as binding are weak or reduced against the parent protein; the word gives no strength. For some assays here: Tags and fused reporters may be left off the sequences shown.

Chains of the proteins cited; added tags and fusions are not shown.
UniProt P29475: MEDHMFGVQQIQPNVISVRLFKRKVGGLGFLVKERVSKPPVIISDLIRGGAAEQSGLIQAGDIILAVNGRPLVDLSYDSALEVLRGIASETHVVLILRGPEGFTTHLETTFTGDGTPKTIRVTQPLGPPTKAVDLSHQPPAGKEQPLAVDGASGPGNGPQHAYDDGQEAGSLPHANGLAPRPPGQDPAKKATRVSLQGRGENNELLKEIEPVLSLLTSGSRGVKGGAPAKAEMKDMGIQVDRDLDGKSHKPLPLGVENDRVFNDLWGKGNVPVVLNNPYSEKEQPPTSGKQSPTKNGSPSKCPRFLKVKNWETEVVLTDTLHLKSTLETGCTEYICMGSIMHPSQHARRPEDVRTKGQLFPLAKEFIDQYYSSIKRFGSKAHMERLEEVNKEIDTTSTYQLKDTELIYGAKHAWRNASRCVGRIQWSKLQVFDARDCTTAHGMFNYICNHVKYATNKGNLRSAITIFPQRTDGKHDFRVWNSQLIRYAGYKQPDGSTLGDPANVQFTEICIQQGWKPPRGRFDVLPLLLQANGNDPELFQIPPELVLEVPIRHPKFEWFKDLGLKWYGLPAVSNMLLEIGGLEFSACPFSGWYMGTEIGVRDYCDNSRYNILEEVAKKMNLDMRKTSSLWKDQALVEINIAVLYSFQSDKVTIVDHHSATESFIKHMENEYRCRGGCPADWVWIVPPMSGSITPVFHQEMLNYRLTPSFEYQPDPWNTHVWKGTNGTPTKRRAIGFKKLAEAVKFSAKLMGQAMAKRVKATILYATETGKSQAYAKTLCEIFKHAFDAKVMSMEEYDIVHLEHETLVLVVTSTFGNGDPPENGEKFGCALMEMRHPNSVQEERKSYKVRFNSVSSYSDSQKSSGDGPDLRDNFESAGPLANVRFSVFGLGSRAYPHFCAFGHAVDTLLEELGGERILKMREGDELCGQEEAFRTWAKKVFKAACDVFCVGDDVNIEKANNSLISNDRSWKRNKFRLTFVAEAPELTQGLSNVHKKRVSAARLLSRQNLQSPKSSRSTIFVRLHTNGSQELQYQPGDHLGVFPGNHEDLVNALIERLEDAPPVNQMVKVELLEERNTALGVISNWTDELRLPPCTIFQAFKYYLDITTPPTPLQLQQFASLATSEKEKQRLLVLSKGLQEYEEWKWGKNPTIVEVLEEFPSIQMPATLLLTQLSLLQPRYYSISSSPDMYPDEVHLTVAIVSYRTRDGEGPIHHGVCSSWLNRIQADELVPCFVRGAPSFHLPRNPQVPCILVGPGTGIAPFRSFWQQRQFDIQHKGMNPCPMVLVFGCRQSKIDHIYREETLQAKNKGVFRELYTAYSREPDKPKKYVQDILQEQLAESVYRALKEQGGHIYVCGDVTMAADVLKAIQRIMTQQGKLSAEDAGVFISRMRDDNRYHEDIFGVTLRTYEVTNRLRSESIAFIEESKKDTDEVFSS

What was measured:
[1] = molecular target: HA-KRAS (UniProt P01116); assay: co-IP; HEK293T cells co-transfected with FLAG-TCOF1 and HA-KRAS; IP with FLAG or HA antibodies, reciprocal
[2] = molecular target: Neuronal nitric oxide synthase (nNOS) (UniProt P29475); assay: co-IP; lysate of Huh6 cells overexpressing nNOS; IP with nNOS antibodies, blot with KRAS and TCOF1 antibodies; IgG as negative control

binding [1] | binding [2] | Binder
binds | – | FLAG-TCOF1 (protein, UniProt Q13428 1-1488) MAEARKRRELLPLIYHHLLRAGYVRAAREVKEQSGQKCFLAQPVTLLDIYTHWQQTSELGRKRKAEEDAALQAKKTRVSDPISTSESSEEEEEAEAETAKATPRLASTNSSVLGADLPSSMKEKAKAETEKAGKTGNSMPHPATGKTVANLLSGKSPRKSAEPSANTTLVSETEEEGSVPAFGAAAKPGMVSAGQADSSSEDTSSSSDETDVEGKPSVKPAQVKASSVSTKESPARKAAPAPGKVGDVTPQVKGGALPPAKRAKKPEEESESSEEGSESEEEAPAGTRSQVKASEKILQVRAASAPAKGTPGKGATPAPPGKAGAVASQTKAGKPEEDSESSSEESSDSEEETPAAKALLQAKASGKTSQVGAASAPAKESPRKGAAPAPPGKTGPAVAKAQAGKREEDSQSSSEESDSEEEAPAQAKPSGKAPQVRAASAPAKESPRKGAAPAPPRKTGPAAAQVQVGKQEEDSRSSSEESDSDREALAAMNAAQVKPLGKSPQVKPASTMGMGPLGKGAGPVPPGKVGPATPSAQVGKWEEDSESSSEESSDSSDGEVPTAVAPAQEKSLGNILQAKPTSSPAKGPPQKAGPVAVQVKAEKPMDNSESSEESSDSADSEEAPAAMTAAQAKPALKIPQTKACPKKTNTTASAKVAPVRVGTQAPRKAGTATSPAGSSPAVAGGTQRPAEDSSSSEESDSEEEKTGLAVTVGQAKSVGKGLQVKAASVPVKGSLGQGTAPVLPGKTGPTVTQVKAEKQEDSESSEEESDSEEAAASPAQVKTSVKKTQAKANPAAARAPSAKGTISAPGKVVTAAAQAKQRSPSKVKPPVRNPQNSTVLARGPASVPSVGKAVATAAQAQTGPEEDSGSSEEESDSEEEAETLAQVKPSGKTHQIRAALAPAKESPRKGAAPTPPGKTGPSAAQAGKQDDSGSSSEESDSDGEAPAAVTSAQVIKPPLIFVDPNRSPAGPAATPAQAQAASTPRKARASESTARSSSSESEDEDVIPATQCLTPGIRTNVVTMPTAHPRIAPKASMAGASSSKESSRISDGKKQEGPATQVSKKNPASLPLTQAALKVLAQKASEAQPPVARTQPSSGVDSAVGTLPATSPQSTSVQAKGTNKLRKPKLPEVQQATKAPESSDDSEDSSDSSSGSEEDGEGPQGAKSAHTLGPTPSRTETLVEETAAESSEDDVVAPSQSLLSGYMTPGLTPANSQASKATPKLDSSPSVSSTLAAKDDPDGKQEAKPQQAAGMLSPKTGGKEAASGTTPQKSRKPKKGAGNPQASTLALQSNITQCLLGQPWPLNEAQVQASVVKVLTELLEQERKKVVDTTKESSRKGWESRKRKLSGDQPAARTPRSKKKKKLGAGEGGEASVSPEKTSTTSKGKAKRDKASGDVKEKKGKGSLGSQGAKDEPEEELQKGMGTVEGGDQSNPKSKKEKKKSDKRKKDKEKKEKKKKAKKASTKDSESPSQKKKKKKKKTAEQTV
– | no binding | treacle ribosome biogenesis factor 1 (TCOF1) (protein, UniProt Q13428 1-1488) MAEARKRRELLPLIYHHLLRAGYVRAAREVKEQSGQKCFLAQPVTLLDIYTHWQQTSELGRKRKAEEDAALQAKKTRVSDPISTSESSEEEEEAEAETAKATPRLASTNSSVLGADLPSSMKEKAKAETEKAGKTGNSMPHPATGKTVANLLSGKSPRKSAEPSANTTLVSETEEEGSVPAFGAAAKPGMVSAGQADSSSEDTSSSSDETDVEGKPSVKPAQVKASSVSTKESPARKAAPAPGKVGDVTPQVKGGALPPAKRAKKPEEESESSEEGSESEEEAPAGTRSQVKASEKILQVRAASAPAKGTPGKGATPAPPGKAGAVASQTKAGKPEEDSESSSEESSDSEEETPAAKALLQAKASGKTSQVGAASAPAKESPRKGAAPAPPGKTGPAVAKAQAGKREEDSQSSSEESDSEEEAPAQAKPSGKAPQVRAASAPAKESPRKGAAPAPPRKTGPAAAQVQVGKQEEDSRSSSEESDSDREALAAMNAAQVKPLGKSPQVKPASTMGMGPLGKGAGPVPPGKVGPATPSAQVGKWEEDSESSSEESSDSSDGEVPTAVAPAQEKSLGNILQAKPTSSPAKGPPQKAGPVAVQVKAEKPMDNSESSEESSDSADSEEAPAAMTAAQAKPALKIPQTKACPKKTNTTASAKVAPVRVGTQAPRKAGTATSPAGSSPAVAGGTQRPAEDSSSSEESDSEEEKTGLAVTVGQAKSVGKGLQVKAASVPVKGSLGQGTAPVLPGKTGPTVTQVKAEKQEDSESSEEESDSEEAAASPAQVKTSVKKTQAKANPAAARAPSAKGTISAPGKVVTAAAQAKQRSPSKVKPPVRNPQNSTVLARGPASVPSVGKAVATAAQAQTGPEEDSGSSEEESDSEEEAETLAQVKPSGKTHQIRAALAPAKESPRKGAAPTPPGKTGPSAAQAGKQDDSGSSSEESDSDGEAPAAVTSAQVIKPPLIFVDPNRSPAGPAATPAQAQAASTPRKARASESTARSSSSESEDEDVIPATQCLTPGIRTNVVTMPTAHPRIAPKASMAGASSSKESSRISDGKKQEGPATQVSKKNPASLPLTQAALKVLAQKASEAQPPVARTQPSSGVDSAVGTLPATSPQSTSVQAKGTNKLRKPKLPEVQQATKAPESSDDSEDSSDSSSGSEEDGEGPQGAKSAHTLGPTPSRTETLVEETAAESSEDDVVAPSQSLLSGYMTPGLTPANSQASKATPKLDSSPSVSSTLAAKDDPDGKQEAKPQQAAGMLSPKTGGKEAASGTTPQKSRKPKKGAGNPQASTLALQSNITQCLLGQPWPLNEAQVQASVVKVLTELLEQERKKVVDTTKESSRKGWESRKRKLSGDQPAARTPRSKKKKKLGAGEGGEASVSPEKTSTTSKGKAKRDKASGDVKEKKGKGSLGSQGAKDEPEEELQKGMGTVEGGDQSNPKSKKEKKKSDKRKKDKEKKEKKKKAKKASTKDSESPSQKKKKKKKKTAEQTV
